# No constants are given. Whether binding was seen depends on the method and setting. Binding seen in cells or lysates may run through a third protein. Binding calls can cover weak binding; strength is not graded here. Tags and fused reporters may be left off the sequences shown.
# Molecular target: T1, NhRL-MCT4 (full-length monocarboxylate transporter-4 fused to the N-terminal portion of Renilla luciferase) (UniProt O15427)
# T1 sequence: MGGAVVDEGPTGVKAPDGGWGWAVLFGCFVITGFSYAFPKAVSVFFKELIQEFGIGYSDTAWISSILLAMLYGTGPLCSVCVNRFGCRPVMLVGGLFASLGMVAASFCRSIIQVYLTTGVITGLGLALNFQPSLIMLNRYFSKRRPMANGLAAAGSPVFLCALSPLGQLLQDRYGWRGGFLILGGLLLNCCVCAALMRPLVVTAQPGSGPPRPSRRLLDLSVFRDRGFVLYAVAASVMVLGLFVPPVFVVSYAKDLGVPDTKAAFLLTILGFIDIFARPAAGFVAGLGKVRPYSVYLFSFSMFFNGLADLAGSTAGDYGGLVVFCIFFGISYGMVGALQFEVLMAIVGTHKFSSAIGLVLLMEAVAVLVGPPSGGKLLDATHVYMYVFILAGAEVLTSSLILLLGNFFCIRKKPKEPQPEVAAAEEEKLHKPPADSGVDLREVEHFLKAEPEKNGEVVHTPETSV
# Assay: split reporter; split Renilla luciferase complementation in HEK293 cells co-transfected with the fusion constructs; Rluc activity normalised to Firefly luciferase from a CMV promoter and to empty vector
substance,measurement,value
Basigin-ChRL (full-length Basigin fused to the C-terminal portion of Renilla luciferase),binding,binds

# From paper PMC5487345
